# Results taken from PubChem BioAssay AID448 (National Center for Advancing Translational Sciences (NCATS), 2006).
# The whole screen tested about 65,000 compounds, of which about 45 (0.07%) were called active. Inconclusive results, whose numbers are uncertain, are shown with a selection of clear calls. Calls follow the shape of the full dose curve. Potencies beside an inconclusive call are fits to weak or partial responses and may not hold up.
# Test system: Schistosoma mansoni peroxiredoxin 2 (Prx2)
# Experiment: Schistosoma Mansoni Peroxiredoxins (Prx2)
# Conditions: S. mansoni Prx2 activity coupled to TGR/GSH (TGR is thioredoxin glutathione reductase), NADPH fluorescence loss, qHTS
# Summary of the method: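 Purified S. mansoni TGR and Prx2 in pH 7.4 phosphate buffer with EDTA and Tween-20 were preincubated with compounds for 15 min. Further NADPH/GSH was added, then a 2.5 mM H2O2 aliquot initiated turnover, followed kinetically by NADPH fluorescence.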
# Potency is read from the fitted curve at half-maximal effect.
row,SMILES,Potency
1,S=c1[nH]nc(-c2ccco2)n1-c1cccc2ccccc12,inconclusive: 82.4 µM [partial curve]
2,COc1ccc(NC(=O)CN2CCCCC2)cc1,inconclusive: 102 µM [single point]
3,NC(=O)c1ccsc1NC(=O)c1nc(-c2ccccc2)n(-c2ccccc2)n1,inconclusive: 15.6 µM [single point]
4,Cc1noc(NS(=O)(=O)c2ccc(NC(=O)CCn3c(=O)oc4ccccc43)cc2)c1C,inconclusive: 43.3 µM [partial curve]
5,CC[N+]1(C)[C@@H]2CC[C@H]1CC(OC(=O)[C@H]1CC[C@@](C(=O)OC3C[C@H]4CC[C@@H](C3)[N+]4(C)CC)(c3ccccc3)c3ccccc31)C2 (some centres not stated),inconclusive: 69.6 µM [partial curve]
6,CN1CCN(S(=O)(=O)c2ccc(NC(=O)Nc3cccc(Cl)c3)cc2)CC1,inactive: > 57 µM
7,COc1cc2c(C)nc3onc(-c4ccccc4)c3c2cc1OC,inactive: > 57 µM
8,COc1cc(OC)cc(C(=O)N(Cc2nc(-c3cccc(C)c3)no2)C(C)C)c1,inconclusive: 54.5 µM [single point]
9,O=S(=O)(Cc1ccccc1)N1CCCC(c2nc(-c3ccc(F)cc3)no2)C1 (configuration not stated),inconclusive: 43.9 µM [partial curve]
10,Cc1noc(C)c1CSc1nc2ccccc2[nH]1,inconclusive: 62.1 µM [single point]
11,COCC(=O)c1[nH]c2ccccc2c1C,inconclusive: 124 µM [single point]
12,Cc1nnc(Sc2nc3ccccc3o2)c2ccccc12,inconclusive: 103 µM [partial curve]
13,O=C(c1cccc(F)c1)N1CCC2(CC1)CCN(c1ccccn1)CC2,inactive: > 57 µM
14,COc1cc(OC)c(NC2=NCCCCC2)cc1Cl,inconclusive: 63.7 µM [single point]
15,CCc1cccc(NC(=O)CS(=O)Cc2nc(-c3ccc(C)cc3)oc2C)c1 (configuration not stated),inconclusive: 65.7 µM [single point]
16,COc1cccc(C(=O)N(Cc2cc3cc(C)ccc3[nH]c2=O)C(C)C)c1,inconclusive: 0.102 µM [partial modulator]
17,CCCCOc1ccccc1NC(=O)CC1SC(=NCC)N(CC)C1=O (configuration not stated),inconclusive: 115 µM [partial curve]
18,O=c1c(-c2cc(F)cc(F)c2)nc2cnc(Oc3ccccc3)nc2n1C[C@H]1CCCO1,inactive: > 11.4 µM
19,FC(F)(F)c1ccc2c(c1)nnn2C1CCN(Cc2nnnn2Cc2ccccc2)CC1,inconclusive: 161 µM [partial curve]
20,CC(=O)N1C(=O)N(C(C)=O)C2C1N(C(C)=O)C(=O)N2C(C)=O (configuration not stated),inactive: > 57 µM
21,CCOC(=O)c1sc(N)nc1-c1ccccc1,inactive: > 57 µM
22,COC(=O)N1CCC2(CC1)CN(c1ccccc1)C2,inactive: > 57 µM

row,SMILES,Potency
1,CC1=CC(=O)NP(=O)(Oc2ccc3ccccc3c2)N1 (configuration not stated),active: 0.565 µM
2,Cc1c(OC(=O)CNC(=O)OC(C)(C)C)ccc2c3c(c(=O)oc12)CCC3,inconclusive: 47.3 µM [single point]
3,COc1ccc(S(=O)(=O)N(CCCN2CCCC2=O)Cc2cc3c(C)ccc(C)c3[nH]c2=O)cc1,inconclusive: 10.3 µM [partial curve]
4,CCOC(=O)c1sc(NC(=O)c2ccc(S(=O)(=O)N3CCOCC3)cc2)cc1C,inconclusive: 23.2 µM [single point]
5,O=C(c1ccc2nccnc2c1)N1CCN(Cc2ccc3c(c2)OCO3)CC1,inconclusive: 61.9 µM [single point]
6,O=C(CCS(=O)(=O)c1ccc(Cl)cc1)OCC(=O)N1CCCCC1,inconclusive: 67.9 µM [single point]
7,Cc1c(C(=O)COC(C)(C)C)[nH]c2ccccc12,inconclusive: 101 µM [single point]
8,NC1(P(=O)(O)O)CCCCC1,inactive: > 57 µM
9,O=c1c(-c2ccc(F)cc2)nc2cnc(N3CCNCC3)nc2n1C1CC1,inactive: > 57 µM
10,COc1ccc(-c2nnn(CC(=O)Nc3sc4c(c3C#N)CCCC4)n2)cc1,inconclusive: 58.1 µM [partial curve]
11,CC(=O)Nc1cc(OC(=O)c2ccco2)cc(OC(=O)c2ccco2)c1,inconclusive: 79.4 µM [single point]
12,CCOc1c(OC)cccc1C1CC(=O)Nc2cc3c(cc21)OCCO3 (configuration not stated),inconclusive: 72.6 µM [partial curve]
13,NS(=O)(=O)C[C-]1C=C[CH]([Sb-]([Cl])([Cl])([Cl])([Cl])[Cl])C=C1.c1ccncc1 (configuration not stated),inconclusive: 4.05 µM [partial curve]
14,NC(N)=NC[C@@H]1COC2(CCCCC2)O1,inactive: > 57 µM
15,COc1ccc(S(=O)(=O)Nc2ccc(O)c3ccccc23)cc1,inconclusive: 26.3 µM [partial curve]
16,COc1ccc(C(=O)Nc2ccc(OC)c(OC)c2)cc1,inconclusive: 82.3 µM [partial curve]
17,Oc1ccc(CNc2ccccc2)c2cccnc12,active: 15 µM
18,COCC(=O)Nc1nc2ccc(S(C)(=O)=O)cc2s1,inconclusive: 121 µM [single point]
19,CCN1C(=S)SC(=O)C1=C1C=C(C)N(CCO)C(C)=C1,inconclusive: 74.4 µM [single point]
20,O=C(Cn1nc(Cl)nc1Cl)c1ccc2c(c1)OCCO2,inconclusive: 44.8 µM [partial curve]
21,CCOC(=O)CSc1nnc(CNC(=O)c2ccc(OC)cc2)n1C1CCCCC1,inconclusive: 6.17 µM [partial modulator]
22,Cc1c(Cl)cccc1NC(=O)CC1SCCNC1=O (configuration not stated),inconclusive: 109 µM [partial curve]

row,SMILES,Potency
1,COc1ccc(C(=O)[C@H](Br)[C@H](Br)C(=O)O)cc1,inconclusive: 46 µM [partial curve]
2,COC(=O)C1=C(C)OC(N)=C(C#N)C1c1cc(OC)c(OCC(N)=O)cc1Cl (configuration not stated),inconclusive: 61.7 µM [single point]
3,COc1ccc(NC(=O)C(c2ccc(OC)cc2)N(C)C(=O)c2cnccn2)cc1 (configuration not stated),inconclusive: 48.4 µM [single point]
4,COCCCNC(=O)c1ccc(N(C)S(C)(=O)=O)cc1,inactive: > 57 µM
5,Cc1[nH]c2ccccc2c1CC(=O)O,inconclusive: 67.1 µM [single point]
6,O=C(O)c1ccccc1S(=O)(=O)NCC(O)COC1CCCCC1 (configuration not stated),inconclusive: 64.7 µM [single point]
7,O=S(=O)(NCc1cccs1)c1cccc2cccnc12,inconclusive: 97.2 µM [partial curve]
8,Cc1ccc(C[C@H](Cc2nc3ccccc3[nH]2)c2nc3ccccc3[nH]2)cc1,inactive: > 57 µM
9,CC(C)COC(=O)C(C#N)c1nc2ccccc2nc1N1CCN(Cc2ccccc2)CC1 (configuration not stated),inactive: > 57 µM
10,Cc1ccc2c(c1)C(=O)[C@@]1(O)CCN(c3ccccc3)C1=N2,inactive: > 57 µM
11,COc1ccc(CNc2cc(-c3ccoc3)ncn2)c(OC)c1,inactive: > 57 µM
12,CC1CCN(CC(C)OC(=O)c2ccc3c(c2)OCCO3)CC1 (configuration not stated),inactive: > 57 µM
13,Cc1ccccc1-c1nc(CS(=O)(=O)CC(=O)Nc2cc(F)ccc2F)c(C)o1,inconclusive: 92 µM [single point]
14,CCOC(=O)C1=C(N)Oc2ccc(Br)cc2[C@@H]1[C@@H](C#N)C(=O)OCC,active: 38.6 µM
15,COC(=O)c1ccccc1NC(=O)CN1CCN(C(=O)c2ccco2)CC1,inconclusive: 93.7 µM [single point]
16,CC1CCc2c(C(=O)N3CCN(S(=O)(=O)c4cccs4)CC3)csc2C1 (configuration not stated),inconclusive: 64.2 µM [single point]
17,CN1CCN(c2ccncc2S(=O)(=O)N2CCN(C)CC2)CC1,inactive: > 57 µM
18,Cn1c(=O)c2[nH]cnc2n(C)c1=O.[CH2-][C@H](Cc1cccc2cc(C(=O)O)c(=O)oc12)OC.[Hg].[OH-],inconclusive: 29.1 µM [partial curve]
19,COc1ccc2c(c1)CCc1c(C(=O)NCCc3ccc(OC)c(OC)c3)noc1-2,inconclusive: 219 µM [partial curve]
20,Cc1ccc2[nH]c(=O)c(CN(CCc3ccccc3)C(c3nnnn3Cc3ccco3)C(C)C)cc2c1 (configuration not stated),inactive: > 57 µM
21,COc1ccc(CNCC(=O)N2CCC3(CC2)OCCO3)cc1,inconclusive: 59.6 µM [single point]
22,CCN1CCN(C(=O)CCN2C(=O)COc3ccc(C)cc32)CC1,inconclusive: 84.4 µM [single point]

# Pulled by structure from the entries so far:
row,SMILES,Potency
17,CCCCOc1ccccc1NC(=O)CC1SC(=NCC)N(CC)C1=O (configuration not stated),inconclusive: 115 µM [partial curve]
7,COc1cc2c(C)nc3onc(-c4ccccc4)c3c2cc1OC,inactive: > 57 µM
10,Cc1ccc2c(c1)C(=O)[C@@]1(O)CCN(c3ccccc3)C1=N2,inactive: > 57 µM
20,Cc1ccc2[nH]c(=O)c(CN(CCc3ccccc3)C(c3nnnn3Cc3ccco3)C(C)C)cc2c1 (configuration not stated),inactive: > 57 µM
17,CN1CCN(c2ccncc2S(=O)(=O)N2CCN(C)CC2)CC1,inactive: > 57 µM

# Following part:

row,SMILES,Potency
1,O=C(O)C(F)(F)C(F)(F)C(F)(F)C(F)(F)C(=O)O,inactive: > 57 µM
2,O=C(CC1Oc2ccccc2NC1=O)NCCCN1CCN(C2CCCCC2)CC1 (configuration not stated),inconclusive: 139 µM [single point]
3,CC(C)(C)OC(=O)N1CCC(C(N)=O)CC1,inactive: > 57 µM
4,COc1ccc(-c2nnc3sc(-c4ccco4)nn23)cc1OC,inconclusive: 36.6 µM [single point]
5,COc1ccc(OC)c(NC(=O)c2nnn(Cc3ccc(Br)cc3F)c2N)c1,inconclusive: 67.4 µM [single point]
6,CCOc1ccc(C2C(C#N)=C(N)Oc3nc[nH]c(=O)c32)cc1OC (configuration not stated),inconclusive: 123 µM [partial curve]
7,O=C(NCCOC(=O)c1ccc(Cl)c(S(=O)(=O)N2CCCCC2)c1)c1ccncc1,inconclusive: 39.6 µM [single point]
8,O=C(Nc1ccccc1)N1CCC2(CC1)CCN(C(=O)c1ccncc1)CC2,inactive: > 57 µM
9,Cn1c(Cn2c(=O)sc3ccccc32)nnc1SCc1ccc(F)cc1,inconclusive: 63 µM [single point]
10,COC(=O)c1ccc(COc2cccc(OC)c2)o1,inconclusive: 73.3 µM [single point]
11,COCCNCC(=O)NC12CC3CC(CC(C3)C1)C2,inconclusive: 66.3 µM [single point]
12,CO[C@@H]([CH2][Hg])CN1C(=O)c2ccccc2S1(=O)=O.Cn1c(=O)c2nc[nH]c2n(C)c1=O,active: 1.29 µM
13,CCOC(=O)c1ccc(NC(=O)c2ccc(C)c(S(=O)(=O)N3CCOCC3)c2)cc1,inconclusive: 61.4 µM [single point]
14,Cc1ccccc1-c1cncnc1NCc1cccnc1,inconclusive: 87.4 µM [partial curve]
15,COc1cc(OC)cc(C(=O)Nc2ccc(S(=O)(=O)N(C)C)cc2)c1,inconclusive: 80.4 µM [single point]
16,CCn1c(SCC(=O)Nc2nccs2)nnc1-c1ccc(C)cc1,inconclusive: 53.9 µM [single point]
17,COc1cccc(Cn2c(=O)cnc3cnc(OC)nc32)c1,inactive: > 57 µM
18,O=C(NCCCN1CCCCC1)C1(S(=O)(=O)c2ccc(Cl)cc2)CC1,inactive: > 57 µM
19,Cc1ccc(C2C(C#N)=C(N)Oc3c2oc(CO)cc3=O)o1 (configuration not stated),inconclusive: 133 µM [single point]
20,CCOc1cccc(C=Nc2cc(C)cc(C)c2O)c1O,inconclusive: 134 µM [partial curve]
21,CCCC[C@@H]1C[C@H]1C(NC(=O)c1ccccc1)c1ccc(C(=O)OC)cc1 (some centres not stated),inactive: > 57 µM
